Data as given in PubChem BioAssay AID652272 (Drosophila RNAi Screening Center, 2013).

Test: 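Genes whose knock-down decreases or increases Hedgehog reporter output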 (primary screen)
Cell system: Drosophila clone 8 (Cl8) cells
Knock-down reagent: long dsRNA against Drosophila genes
Measured: 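Plate reader light from a firefly reporter under a ptc promoter fragment that responds to Hedgehog, with Renilla light as transfection reference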
Reading the numbers: firefly Hh reporter signal: higher = more ptc reporter light; Renilla reference signal: higher = more Renilla control light
Hit rule: 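Called a hit if the two-replicate mean z-score lies below -2 or above +3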
Calls: active = hit: reporter lowered or raised; inactive = not a hit
The screen tested about 21,000 reagents; this is an unselected part of those that have a named target and a result. In the full data, 503 (2.4%) are marked active. 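Raw plate light values, not normalised; calls rest on replicate z-scores that were not deposited; hits include reporter decreases as well as increases.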 A number with no mark means an inactive call. Reagents against one gene are numbered here. Not given: the amount of reagent, the time to read-out.

gene	reagent no.	firefly Hh reporter signal, replicate 1	firefly Hh reporter signal, replicate 2	firefly Hh reporter signal, replicate 3	Renilla reference signal, replicate 1	Renilla reference signal, replicate 2
yellow-e (GeneID 41653)	1	52224	3.44e5		10621	7760
yellow-e (GeneID 41653)	2	1.03e5	91520		3575	2458
CG6660 (GeneID 42708)	1	1.58e5	72243		7408	3165
sing (GeneID 32644)	1	72530	1.33e5		2307	5723
CG8818 (GeneID 36375)	1	60793	36378		3293	1450
CG2082 (GeneID 40713)	1	1.78e5	1.00e5		5847	3708
Pak (GeneID 44039)	1	95996	56560		3756	2066
SP (GeneID 39494)	1	40677	56981	61371	4539	4225
CG5646 (GeneID 43311)	1	1.00e5	59392		2380	1744
CG17321 (GeneID 35144)	1	94480	52645		2564	5633
CG14861 (GeneID 41810)	1	60708	90263		1670	2513
Sur-8 (GeneID 42093)	1	52608	77217		1024	2189
CG15879 (GeneID 38274)	1	62181	55325		1590	4219
dpa (GeneID 35679)	1	79314	48777		1888	4346
CG31560 (GeneID 40772)	1	69528	1.03e5		2812	3200
knk (GeneID 47137)	1	92503	81684		2917	2592
Gle1 (GeneID 35849)	1	81682	33765		2821	1200
wap (GeneID 33131)	1	1.15e5	1.00e5		2803	2549
CG6126 (GeneID 41967)	1	95606	1.07e5		4073	4592
dpr16 (GeneID 40619)	1	86864	1.16e5		3789	3356
dpr16 (GeneID 40619)	2	5.19e5	96296		3397	3397
Rok (GeneID 43916)	1	97155	83929		1760	1997
CanA1 (GeneID 43670)	1	1.20e5	1.37e5		3776	3772
E(spl)mdelta-HLH (GeneID 43150)	1	5.23e5	1.06e5		27248	8128
TwdlM (GeneID 43200)	1	1.37e5	1.60e5		3443	3441
CR33221 (GeneID 12798104)	1	7.43e5	3.04e5		44421	7417
CG32202 (GeneID 326199)	1	1.68e5 (active)			3168	3840
Corin (GeneID 35691)	1	1.61e5	77417		3830	5638
Gr68a (GeneID 39324)	1	70732	58913	64717	4577	4600
Ssrp (GeneID 37767)	1	89414	67344		3202	2476
ND-51L2 (GeneID 36695)	1	69824	48784		1947	3312
CG14352 (GeneID 33341)	1	1.15e5	88984		2386	2160
Ccs (GeneID 46035)	1	86176	62592		2267	4771
CG33090 (GeneID 34835)	1	58192	67321		2548	2482
CG15414 (GeneID 33570)	1	1.69e5	91446		4484	7501
Catsup (GeneID 48805)	1	64920	60904		1932	5218
Obp83b (GeneID 40738)	1	84824	80960		3595	2998
obst-E (GeneID 33806)	1	1.12e5	59960		3424	2469
CG7806 (GeneID 34140)	1	58346	79798		2227	3181

Entries listed above called active (1):
gene	reagent no.	firefly Hh reporter signal, replicate 1	firefly Hh reporter signal, replicate 2	firefly Hh reporter signal, replicate 3	Renilla reference signal, replicate 1	Renilla reference signal, replicate 2
CG32202 (GeneID 326199)	1	1.68e5 (active)			3168	3840
